The other results are listed elsewhere or left out.
Each target was assayed with C#Cc1cccc(Nc2ncnc3cc(OCCOC)c(OCCOC)cc23)c1 [erlotinib] (assay: log2 fold change, soluble protein after heating vs DMSO (PISA); higher = thermal stabilisation; K562 lysate, 10 uM; active = over 0.2 and 3.5 SD of the protein, either way, in both replicates (recomputed)).
Summary of the method: (§1)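 K562 pellets were dounce-homogenised in PBS pH 7.4 with 1 mM MgCl2, and the crude extract at 1 mg/mL protein was treated with 10 μM compound for 30 min. Aliquots were heated for 3 min across 48°C-58°C, pooled, and brought to 0.5% NP-40 at 4°C; soluble protein was the supernatant after 21,000xg for 90 min. Soluble protein was quantified by TMTpro 16plex LC-MS/MS with channel sums equalised, and reported as log2 fold change in thermal stability against DMSO controls, with values from duplicates.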

Amino acid sequences for entries named in this document (tags omitted). A change or cut given only in a name is not applied to a line headed by its entry.
UniProt O75382: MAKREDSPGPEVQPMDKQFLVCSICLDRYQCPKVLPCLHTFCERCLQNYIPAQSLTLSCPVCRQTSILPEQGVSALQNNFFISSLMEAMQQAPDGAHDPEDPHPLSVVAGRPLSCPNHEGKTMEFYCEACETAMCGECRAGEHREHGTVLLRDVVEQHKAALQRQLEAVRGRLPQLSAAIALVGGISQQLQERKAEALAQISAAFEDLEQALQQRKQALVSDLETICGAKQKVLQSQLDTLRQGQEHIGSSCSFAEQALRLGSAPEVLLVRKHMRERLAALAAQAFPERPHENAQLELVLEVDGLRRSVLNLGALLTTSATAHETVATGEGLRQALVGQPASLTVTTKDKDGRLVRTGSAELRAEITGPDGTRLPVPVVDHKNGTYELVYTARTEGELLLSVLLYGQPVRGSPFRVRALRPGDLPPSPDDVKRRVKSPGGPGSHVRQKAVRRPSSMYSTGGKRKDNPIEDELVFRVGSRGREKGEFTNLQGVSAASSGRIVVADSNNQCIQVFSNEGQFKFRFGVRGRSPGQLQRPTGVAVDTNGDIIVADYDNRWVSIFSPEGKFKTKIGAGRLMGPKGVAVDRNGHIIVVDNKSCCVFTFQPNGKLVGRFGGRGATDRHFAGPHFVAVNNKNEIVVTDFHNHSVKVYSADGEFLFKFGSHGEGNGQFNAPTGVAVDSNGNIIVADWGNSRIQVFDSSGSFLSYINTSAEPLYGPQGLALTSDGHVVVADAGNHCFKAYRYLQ
UniProt O43715: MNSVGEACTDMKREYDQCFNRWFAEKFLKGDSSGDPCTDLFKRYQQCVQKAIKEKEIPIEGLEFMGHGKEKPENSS
UniProt Q629K1: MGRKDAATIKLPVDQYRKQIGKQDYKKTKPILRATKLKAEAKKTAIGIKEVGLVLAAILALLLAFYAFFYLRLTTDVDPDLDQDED
UniProt O60637: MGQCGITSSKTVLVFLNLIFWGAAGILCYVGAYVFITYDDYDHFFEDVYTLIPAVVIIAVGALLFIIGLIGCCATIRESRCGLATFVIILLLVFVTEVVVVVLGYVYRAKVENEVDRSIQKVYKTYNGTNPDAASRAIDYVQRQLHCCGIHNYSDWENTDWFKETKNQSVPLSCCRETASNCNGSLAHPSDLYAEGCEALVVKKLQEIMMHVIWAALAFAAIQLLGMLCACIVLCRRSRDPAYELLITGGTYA
UniProt Q96LD4: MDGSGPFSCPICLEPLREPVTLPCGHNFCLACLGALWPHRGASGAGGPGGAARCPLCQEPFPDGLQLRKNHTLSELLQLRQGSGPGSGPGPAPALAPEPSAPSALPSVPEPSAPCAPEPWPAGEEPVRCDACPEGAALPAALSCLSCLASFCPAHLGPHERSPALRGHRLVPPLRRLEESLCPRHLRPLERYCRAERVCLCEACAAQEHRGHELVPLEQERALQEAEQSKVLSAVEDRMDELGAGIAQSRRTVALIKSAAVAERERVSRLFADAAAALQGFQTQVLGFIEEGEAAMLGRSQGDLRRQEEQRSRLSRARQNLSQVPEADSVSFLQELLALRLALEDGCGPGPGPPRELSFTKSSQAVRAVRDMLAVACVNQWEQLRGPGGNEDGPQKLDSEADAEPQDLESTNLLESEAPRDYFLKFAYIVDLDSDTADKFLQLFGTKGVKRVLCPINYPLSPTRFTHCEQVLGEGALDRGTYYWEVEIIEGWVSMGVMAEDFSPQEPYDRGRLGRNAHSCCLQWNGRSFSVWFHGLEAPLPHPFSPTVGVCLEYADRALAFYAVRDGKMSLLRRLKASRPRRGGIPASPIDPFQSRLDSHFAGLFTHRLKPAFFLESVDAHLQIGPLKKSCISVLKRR
UniProt Q9UJT2: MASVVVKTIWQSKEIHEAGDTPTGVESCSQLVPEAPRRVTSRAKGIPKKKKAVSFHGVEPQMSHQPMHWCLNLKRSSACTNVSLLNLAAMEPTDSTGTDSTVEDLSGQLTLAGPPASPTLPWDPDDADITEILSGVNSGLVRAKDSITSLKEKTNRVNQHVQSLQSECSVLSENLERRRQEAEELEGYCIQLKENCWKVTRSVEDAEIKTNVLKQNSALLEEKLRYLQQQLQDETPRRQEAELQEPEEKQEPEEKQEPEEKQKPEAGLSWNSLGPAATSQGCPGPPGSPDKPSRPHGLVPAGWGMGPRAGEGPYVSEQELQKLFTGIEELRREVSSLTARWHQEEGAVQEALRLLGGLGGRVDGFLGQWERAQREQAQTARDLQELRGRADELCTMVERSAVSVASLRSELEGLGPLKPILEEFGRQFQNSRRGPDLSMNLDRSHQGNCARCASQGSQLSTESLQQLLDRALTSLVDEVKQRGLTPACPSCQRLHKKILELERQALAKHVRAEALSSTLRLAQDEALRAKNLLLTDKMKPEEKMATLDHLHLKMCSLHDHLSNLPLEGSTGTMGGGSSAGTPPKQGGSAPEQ
UniProt O14717: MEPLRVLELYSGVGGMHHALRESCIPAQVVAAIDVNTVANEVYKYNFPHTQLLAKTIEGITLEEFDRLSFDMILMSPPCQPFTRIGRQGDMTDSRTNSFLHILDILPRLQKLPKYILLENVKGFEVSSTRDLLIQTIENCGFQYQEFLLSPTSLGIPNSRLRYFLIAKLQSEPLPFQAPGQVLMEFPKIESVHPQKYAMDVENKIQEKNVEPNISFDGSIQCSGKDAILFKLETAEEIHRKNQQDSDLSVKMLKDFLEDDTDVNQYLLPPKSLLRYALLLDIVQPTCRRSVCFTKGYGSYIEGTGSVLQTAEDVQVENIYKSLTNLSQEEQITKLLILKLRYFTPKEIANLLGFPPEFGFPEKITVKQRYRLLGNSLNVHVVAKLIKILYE
UniProt O43734: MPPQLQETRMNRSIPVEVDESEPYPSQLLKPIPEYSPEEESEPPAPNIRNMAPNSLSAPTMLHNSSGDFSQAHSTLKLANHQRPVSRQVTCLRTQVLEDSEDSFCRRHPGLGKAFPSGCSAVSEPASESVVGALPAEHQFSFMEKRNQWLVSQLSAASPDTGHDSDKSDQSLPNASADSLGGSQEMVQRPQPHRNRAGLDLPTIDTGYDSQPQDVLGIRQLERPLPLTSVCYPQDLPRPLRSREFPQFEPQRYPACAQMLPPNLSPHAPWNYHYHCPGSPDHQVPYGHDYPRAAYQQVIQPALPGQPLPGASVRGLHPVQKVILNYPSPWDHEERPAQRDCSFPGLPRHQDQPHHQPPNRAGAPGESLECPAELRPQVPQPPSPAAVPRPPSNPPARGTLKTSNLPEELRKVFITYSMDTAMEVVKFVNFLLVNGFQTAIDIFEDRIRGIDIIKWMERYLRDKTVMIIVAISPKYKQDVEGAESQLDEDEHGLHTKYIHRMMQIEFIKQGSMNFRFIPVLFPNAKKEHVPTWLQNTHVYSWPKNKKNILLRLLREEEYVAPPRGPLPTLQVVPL
UniProt O94972: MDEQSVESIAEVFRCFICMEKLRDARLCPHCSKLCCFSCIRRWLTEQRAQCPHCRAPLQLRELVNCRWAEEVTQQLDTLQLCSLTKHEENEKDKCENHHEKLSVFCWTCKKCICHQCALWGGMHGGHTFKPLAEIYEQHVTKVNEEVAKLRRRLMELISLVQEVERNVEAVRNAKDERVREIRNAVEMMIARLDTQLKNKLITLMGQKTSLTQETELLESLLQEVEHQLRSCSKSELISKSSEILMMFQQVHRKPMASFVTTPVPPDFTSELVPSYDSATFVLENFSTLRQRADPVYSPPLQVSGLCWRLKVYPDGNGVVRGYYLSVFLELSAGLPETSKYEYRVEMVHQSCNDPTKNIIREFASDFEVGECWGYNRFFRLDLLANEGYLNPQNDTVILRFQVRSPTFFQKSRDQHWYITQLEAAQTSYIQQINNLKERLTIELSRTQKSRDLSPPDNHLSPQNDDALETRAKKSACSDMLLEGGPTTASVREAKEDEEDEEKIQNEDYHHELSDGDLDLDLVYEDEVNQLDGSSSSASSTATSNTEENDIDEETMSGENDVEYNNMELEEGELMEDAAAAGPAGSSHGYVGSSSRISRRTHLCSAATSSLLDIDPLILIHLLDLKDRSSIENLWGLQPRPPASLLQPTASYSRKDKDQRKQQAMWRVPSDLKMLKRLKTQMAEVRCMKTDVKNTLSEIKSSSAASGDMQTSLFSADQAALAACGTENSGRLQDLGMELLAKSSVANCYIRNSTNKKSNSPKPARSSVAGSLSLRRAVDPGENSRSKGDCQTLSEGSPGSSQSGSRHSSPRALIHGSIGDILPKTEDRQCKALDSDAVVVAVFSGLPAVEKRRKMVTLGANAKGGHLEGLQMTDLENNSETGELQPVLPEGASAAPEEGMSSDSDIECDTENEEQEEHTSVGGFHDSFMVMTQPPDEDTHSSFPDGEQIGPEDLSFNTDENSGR
UniProt Q6ZTA4: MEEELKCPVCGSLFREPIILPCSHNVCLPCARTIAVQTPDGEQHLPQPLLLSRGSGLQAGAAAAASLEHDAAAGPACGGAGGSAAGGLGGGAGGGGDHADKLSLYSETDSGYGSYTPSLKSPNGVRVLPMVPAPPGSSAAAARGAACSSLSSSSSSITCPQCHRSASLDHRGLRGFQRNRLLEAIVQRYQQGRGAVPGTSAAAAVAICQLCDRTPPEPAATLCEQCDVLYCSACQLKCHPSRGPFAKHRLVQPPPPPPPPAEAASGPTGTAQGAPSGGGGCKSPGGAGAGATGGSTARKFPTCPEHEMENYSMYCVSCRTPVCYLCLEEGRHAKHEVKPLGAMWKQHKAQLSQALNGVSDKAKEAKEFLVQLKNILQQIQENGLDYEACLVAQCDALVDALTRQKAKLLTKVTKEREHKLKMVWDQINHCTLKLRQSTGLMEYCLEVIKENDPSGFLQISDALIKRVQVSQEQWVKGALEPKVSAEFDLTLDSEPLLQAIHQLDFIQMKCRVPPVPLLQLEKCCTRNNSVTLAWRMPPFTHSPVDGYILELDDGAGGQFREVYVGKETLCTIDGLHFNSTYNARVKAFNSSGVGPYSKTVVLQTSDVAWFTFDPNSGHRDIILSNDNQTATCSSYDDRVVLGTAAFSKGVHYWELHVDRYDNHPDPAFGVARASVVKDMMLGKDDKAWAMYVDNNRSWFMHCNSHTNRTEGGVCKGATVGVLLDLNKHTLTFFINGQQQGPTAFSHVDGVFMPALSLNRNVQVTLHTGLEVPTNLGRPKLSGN
UniProt Q96GJ1: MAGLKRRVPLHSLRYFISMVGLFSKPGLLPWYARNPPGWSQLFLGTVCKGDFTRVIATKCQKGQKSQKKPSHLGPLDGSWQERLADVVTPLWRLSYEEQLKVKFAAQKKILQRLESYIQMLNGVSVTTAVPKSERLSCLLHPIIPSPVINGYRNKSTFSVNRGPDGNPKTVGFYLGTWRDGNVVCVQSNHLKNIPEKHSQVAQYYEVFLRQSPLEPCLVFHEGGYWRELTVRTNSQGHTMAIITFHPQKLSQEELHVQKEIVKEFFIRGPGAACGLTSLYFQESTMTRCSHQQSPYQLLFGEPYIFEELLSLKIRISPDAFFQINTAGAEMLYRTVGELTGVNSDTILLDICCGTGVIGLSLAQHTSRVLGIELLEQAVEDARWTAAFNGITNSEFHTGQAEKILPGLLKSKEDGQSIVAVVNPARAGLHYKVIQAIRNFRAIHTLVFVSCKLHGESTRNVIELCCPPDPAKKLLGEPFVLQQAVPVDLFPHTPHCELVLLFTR
UniProt Q8N4P2: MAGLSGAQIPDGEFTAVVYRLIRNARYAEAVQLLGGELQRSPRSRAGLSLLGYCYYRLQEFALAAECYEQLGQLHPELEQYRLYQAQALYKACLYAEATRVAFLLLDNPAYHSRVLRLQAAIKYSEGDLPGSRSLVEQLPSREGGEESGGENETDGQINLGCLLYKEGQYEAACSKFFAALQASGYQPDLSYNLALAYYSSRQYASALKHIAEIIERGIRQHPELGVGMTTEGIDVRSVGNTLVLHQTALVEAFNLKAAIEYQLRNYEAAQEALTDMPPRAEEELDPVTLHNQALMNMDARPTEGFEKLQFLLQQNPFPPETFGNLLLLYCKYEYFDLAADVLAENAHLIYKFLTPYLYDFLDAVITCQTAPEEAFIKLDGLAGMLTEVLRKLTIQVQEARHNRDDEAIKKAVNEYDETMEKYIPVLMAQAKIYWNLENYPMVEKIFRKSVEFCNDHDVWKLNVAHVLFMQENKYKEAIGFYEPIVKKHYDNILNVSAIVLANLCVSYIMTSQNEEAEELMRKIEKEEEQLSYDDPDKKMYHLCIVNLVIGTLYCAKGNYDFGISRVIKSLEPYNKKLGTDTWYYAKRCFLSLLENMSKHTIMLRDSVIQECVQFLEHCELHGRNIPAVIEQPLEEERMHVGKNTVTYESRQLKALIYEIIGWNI
UniProt Q12999: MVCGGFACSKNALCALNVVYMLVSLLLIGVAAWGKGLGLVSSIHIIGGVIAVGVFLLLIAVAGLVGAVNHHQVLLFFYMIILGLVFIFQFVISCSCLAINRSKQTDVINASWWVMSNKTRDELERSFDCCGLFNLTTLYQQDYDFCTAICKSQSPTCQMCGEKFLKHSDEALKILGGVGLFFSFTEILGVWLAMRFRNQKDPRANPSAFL

log2 fold change, inactive:
TRAF5 isoform 2 (UniProt O00463) 0.092
TRIM3 (UniProt O75382) 0.129
TRIAP1 (UniProt O43715) 0.194
TSPYL6 (UniProt Q8N831) 0.114
TRIM16 (UniProt O95361) 0.033
TRIQK (UniProt Q629K1) -0.038
TSC22D3 isoform 3 (UniProt Q99576) -0.025
TSPAN3 (UniProt O60637) 0.002
TRIM47 (UniProt Q96LD4) 0.076
TTBK2 (UniProt Q6IQ55) 0.124
TSKS (UniProt Q9UJT2) 0.025
TRDMT1 (UniProt O14717) -0.106
TTC3 (UniProt P53804) 0.029
TSPYL1 (UniProt Q9H0U9) 0.039
TRAF3IP2 (UniProt O43734) 0.095
TRIM37 (UniProt O94972) 0.138
TSPYL2 (UniProt Q9H2G4) 0.132
TRIM67 (UniProt Q6ZTA4) -0.019
TRPM4 (UniProt Q8TD43) 0.018
TRIB3 (UniProt Q96RU7) -0.236
TRPS1 isoform 2 (UniProt Q9UHF7) -0.001
TRMT2B (UniProt Q96GJ1) -0.036
TRIM68 (UniProt Q6AZZ1) 0.065

What follows are targets tested with C/C(=N\NC(=O)C1=CC(=CC=C1)S(=O)(=O)N2CCOCC2)/C3=C(C=CC(=C3)Cl)O in the same assay as above.
Summary of the method: as §1

log2 fold change, inactive:
TRIM3 (UniProt O75382) 0.2
TRIAP1 (UniProt O43715) 0.007
TRPM7 (UniProt Q96QT4) -0.137
TSEN15, A0A2U3TZM3 -0.383
TSPAN3 (UniProt O60637) 0.012
TRIM47 (UniProt Q96LD4) -0.178
TSKS (UniProt Q9UJT2) -0.056
TRDMT1 (UniProt O14717) 0.059
TRMO (UniProt Q9BU70) 0.052
TTC13 (UniProt Q8NBP0) 0.122
TRAF3IP2 (UniProt O43734) 0.024
TRAF7 (UniProt Q6Q0C0) 0.006
TTC30B (UniProt Q8N4P2) -0.289
TRIM41 (UniProt Q8WV44) 0.053
TSPAN31 (UniProt Q12999) 0.007

These targets were tested with C1=CC(=CC=C1C2=NC3=C(N2)C=C(C=C3)C(=O)N)OC4=CC=C(C=C4)Cl in the same assay as above.
Summary of the method: as §1

log2 fold change, inactive:
TRAF5 isoform 2 (UniProt O00463) 0.127
TRIAP1 (UniProt O43715) 0.036
TSPYL6 (UniProt Q8N831) -0.034
TRIM16 (UniProt O95361) 0.035
TRIQK (UniProt Q629K1) -0.044
TSC22D3 isoform 3 (UniProt Q99576) -0.03
TSPAN3 (UniProt O60637) 0.058
TRIM47 (UniProt Q96LD4) -0.024
TTBK2 (UniProt Q6IQ55) -0.166
TSKS (UniProt Q9UJT2) 0.021
TRDMT1 (UniProt O14717) -0.107
TTC3 (UniProt P53804) -0.007
TSPYL1 (UniProt Q9H0U9) 0
TRAF3IP2 (UniProt O43734) 0.087
TRIM37 (UniProt O94972) -0.062
TSPYL2 (UniProt Q9H2G4) 0.037
TRIM67 (UniProt Q6ZTA4) 0.034
TRPM4 (UniProt Q8TD43) 0.164
TRIB3 (UniProt Q96RU7) 0.048
TRPS1 isoform 2 (UniProt Q9UHF7) -0.074
TRMT2B (UniProt Q96GJ1) -0.037
TRIM68 (UniProt Q6AZZ1) -0.026

log2 fold change, active:
TRIM3 (UniProt O75382) -0.909

Each target was assayed with C1=CC2=C(C=CC(=C2)/C=C\3/C(=O)NC(=NCC4=CC=CS4)S3)N=C1 in the same assay as above.
Summary of the method: as §1

log2 fold change, inactive:
TRIM3 (UniProt O75382) 0.098
TRIAP1 (UniProt O43715) 0.067
TRPM7 (UniProt Q96QT4) 0.091
TSEN15, A0A2U3TZM3 -0.388
TSPAN3 (UniProt O60637) -0.073
TRIM47 (UniProt Q96LD4) 0
TSKS (UniProt Q9UJT2) -0.046
TRDMT1 (UniProt O14717) 0.009
TRMO (UniProt Q9BU70) 0.049
TTC13 (UniProt Q8NBP0) -0.044
TRAF3IP2 (UniProt O43734) 0.182
TRAF7 (UniProt Q6Q0C0) -0.042
TTC30B (UniProt Q8N4P2) 0.006
TRIM41 (UniProt Q8WV44) -0.09
TSPAN31 (UniProt Q12999) -0.057
